# Data taken from the supplement of paper PMC10735217.
# Counter-ions that a name gives are not always drawn. Some of the results follow. Single values are uncertain here, since repeats match poorly.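 The human kidney-derived cells carry a stably integrated construct of eight TEAD-binding elements driving luciferase, read by luminescence in a drug-repurposing library screen. A compound counts as a hit when its signal is more than five robust Z scores above the plate mean.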
# Test system: HEK293A TEAD-LUC reporter
# Experiment: TEAD-luciferase reporter activity (YAP activation), robust Z score vs plate; higher = stronger YAP/TEAD activation
# Details: 24 h
SMILES,TEAD-luciferase reporter activity (compound concentration: 200 nM),TEAD-luciferase reporter activity (compound concentration: 2 uM),TEAD-luciferase reporter activity (compound concentration: 10 uM)
COc1cc(C(=O)N[C@@H]2OC[C@@H](c3ccccc3)N3CCCC[C@@H]23)cc(OC)c1OC,inactive: -1.3,inactive: 1.03,inactive: 0.922
N[C@@H](CCC(=O)O)C(=O)N[C@@H](Cc1c[nH]c2ccccc12)C(=O)O,inactive: -0.543,inactive: 0.651,inactive: 1.59
CCOC(=O)C1CCN(C(=O)c2c[nH]c3ncccc23)CC1,inactive: -1.06,–,inactive: -0.835
CCC(=O)Nc1ccc(C(=O)O)c(NC(=O)c2ccc(C(=O)O)cc2)c1,–,inactive: -1.49,–
CCC(=O)Nc1ccc(C(=O)O)c(NC(=O)c2ccc(C(=O)O)cc2)c1 [AM-682 metabolite],inactive: -1.39,inactive: 0.555,inactive: 1.03
C#CC1(OCC(O)CN2CCN(c3cccc(C(F)(F)F)c3)CC2)CCCCC1 (centres undefined) [terciprazine],inactive: -1.4,inactive: -0.338,inactive: -2.49
CCc1ccc2c(-c3cccc(Cl)c3)nc(=O)n(CC)c2n1,inactive: 2.13,inactive: 0.124,inactive: -0.529
CNC(=O)c1cc(Oc2ccc(NC(=O)Nc3ccc(Cl)c(C(F)(F)F)c3)cc2)ccn1 [Sorafenib],inactive: -2.61,inactive: -2.58,inactive: -1.89
COc1cc2nc(N3CCN(C(=O)C4=CC5C=CC4CC5)CC3)nc(N)c2cc1OC (centres undefined),inactive: -1.16,inactive: 3.43,inactive: 0.549
COc1ccnc2c1CCCCC2[S@+]([O-])c1nc2ccccc2[nH]1 (some centres undefined),inactive: -1.25,inactive: 0.645,inactive: -1.36
O=C1[C@H](Cc2ccc(O)cc2)N2C(=O)CCN(C(=O)NCc3ccccc3)[C@H]2CN1Cc1cccc2ccccc12,inactive: 0.598,inactive: -1.09,inactive: 0.869
CCc1nc2c(C)cc(C)nc2n1Cc1ccc([C@@H](c2ccccc2)[C@@H](C)C(=O)O)cc1,inactive: 0.513,inactive: -0.339,inactive: 2.19
CCCCN(O)C(=O)Nc1cc(C2CCC(c3cc(OC)c(OC)c(OC)c3)O2)cc(OC)c1OCCC (centres undefined),inactive: -0.312,inactive: -0.795,inactive: 1.14
C/C=C1/[C@H](O[C@@H]2O[C@H](CO)[C@@H](O)[C@H](O)[C@H]2O)OC=C(C(=O)OC)[C@H]1CC(=O)OCCc1ccc(O)c(O)c1,inactive: -1.63,inactive: 0.173,inactive: -0.252
C/N=C1/SCC(O)(c2ccc(Cl)c(S(N)(=O)=O)c2)N1C (centres undefined) [tizolemide],inactive: 0.0155,inactive: -0.296,inactive: -0.598
CC(=O)N1CCCN(C(=O)c2ccc3nccn3c2)CC1,inactive: -1.16,–,inactive: 2.34
CCC(OC)(c1cccc(OCc2ccc3ccccc3c2)c1)c1nccs1 (centres undefined),inactive: 0.0504,inactive: 4.57,inactive: 4.87
COc1cc(Cc2cnc(N)nc2N)c2c(c1OC)OC(C1CC1)C=C2 (centres undefined) [iclaprim mesylate],–,inactive: 0.727,–
COc1cc(Cc2cnc(N)nc2N)c2c(c1OC)OC(C1CC1)C=C2 (centres undefined) [Iclaprim],inactive: 1.1,inactive: 0.702,inactive: 0.596
CCN(CC)CCCNc1cc(OC)cc2cccnc12,inactive: -1.25,inactive: -2.46,inactive: -1.87

# Single records, from the list above. Values in the order: TEAD-luciferase reporter activity (compound concentration: 200 nM)	TEAD-luciferase reporter activity (compound concentration: 2 uM)	TEAD-luciferase reporter activity (compound concentration: 10 uM)
# CCC(OC)(c1cccc(OCc2ccc3ccccc3c2)c1)c1nccs1 (centres undefined) is entered as inactive: 0.0504	inactive: 4.57	inactive: 4.87
# CNC(=O)c1cc(Oc2ccc(NC(=O)Nc3ccc(Cl)c(C(F)(F)F)c3)cc2)ccn1 [Sorafenib] is entered as inactive: -2.61	inactive: -2.58	inactive: -1.89
# CCN(CC)CCCNc1cc(OC)cc2cccnc12 is entered as inactive: -1.25	inactive: -2.46	inactive: -1.87

# (further entries)

SMILES,TEAD-luciferase reporter activity (compound concentration: 200 nM),TEAD-luciferase reporter activity (compound concentration: 2 uM),TEAD-luciferase reporter activity (compound concentration: 10 uM)
O=C(O)CNC(=O)c1nc(Cl)c2ccccc2c1O,inactive: -0.814,inactive: -0.341,inactive: 1.07
C[C@@H](c1ccc2nccn2c1)n1nnc2ncc(-c3cnn(C)c3)nc21 [Savolitinib],inactive: 0.0899,inactive: -0.815,inactive: -0.78
CCCC[C@]1(CC)CS(=O)(=O)c2cc(CNC(CC(=O)O)CC(=O)O)c(OC)cc2[C@@H](c2ccccc2)N1,inactive: -0.418,inactive: -1.31,inactive: 0.451
COc1ccc(C(=O)c2c(C)oc3ccc(O)cc23)c(OC)c1OC,inactive: -1.74,inactive: 3.45,inactive: 0.000311
CN(C)CCN(Cc1cccs1)c1ccccn1,–,inactive: 1,–
CN(C)CCN(Cc1cccs1)c1ccccn1 [Methapyrilene hydrochloride],inactive: -0.95,–,inactive: -0.185
COc1cc2nccc(Oc3ccc(NC(=O)NC4CC4)c(Cl)c3)c2cc1C(N)=O [Lenvatinib mesylate],inactive: -0.143,inactive: -2.95,inactive: -2.4
CCCNC(=O)Nc1ccc(OC)cc1C,inactive: -3.22,inactive: 2.72,inactive: 1.07
CC(C)C[C@H](N)C(=O)N1CCC[C@H]1C(=O)N[C@@H](Cc1ccc(O)cc1)C(=O)N[C@@H](Cc1ccccc1)C(=O)N[C@@H](CC(=O)O)C(N)=O,inactive: -1.74,inactive: 0.935,inactive: -0.526
CC(C)(C)CC(C)(C)c1ccc(OCCOCCOCCOCCOCCOCCOCCO)cc1,inactive: -0.193,inactive: 0.554,inactive: 1.13
CCN[C@H]1CN(CCCOC)S(=O)(=O)c2sc(S(N)(=O)=O)cc21 [Brinzolamide],inactive: -1.26,–,inactive: -0.904
CCN[C@H]1CN(CCCOC)S(=O)(=O)c2sc(S(N)(=O)=O)cc21 [brinzolamide],–,inactive: 0.951,–
COC(=O)c1cc(OC)c2c(c1-c1c(C(=O)OC)cc(OC)c3c1OCO3)OCO2 [Bifendate],inactive: 0.701,inactive: 0.72,inactive: 0.774
O=C(c1cc(B(O)O)cc([N+](=O)[O-])c1)N1CCOCC1,inactive: -0.618,inactive: -0.81,inactive: -0.308
CCOc1cnc(NCc2cc3c(C)nn(C)c3nc2N2CCOCC2)nc1,inactive: 1.71,inactive: -1.12,active: 5.02
CCC(c1ccccc1)c1c(O)c2ccccc2oc1=O (centres undefined) [Phenprocoumon(Marcumar)],inactive: -0.904,inactive: -1.47,inactive: -0.626
CC(C)(CCCCOc1cc(-c2ccccc2)cc(-c2ccccc2)n1)c1nn[nH]n1,inactive: 0.0893,inactive: -0.351,inactive: 1.66
CC(=O)N(C)Cc1ccc2c(c1)OCO2,inactive: -1.01,inactive: -0.59,inactive: 1.8
O=C(O)c1ccc(CN2C[C@@H]3C[C@H]2CN3Cc2ccc(Oc3ccc(-c4ncco4)cc3)cc2)cc1 [Acebilustat],inactive: -0.768,inactive: -0.0445,inactive: -0.0236
O=C(O)CCCN1CCC[C@H]1COc1ccc(Oc2ccc(Cl)cc2)cc1,inactive: 0.409,inactive: -1.91,inactive: 3.19

SMILES,TEAD-luciferase reporter activity (compound concentration: 200 nM),TEAD-luciferase reporter activity (compound concentration: 2 uM),TEAD-luciferase reporter activity (compound concentration: 10 uM)
CCCCCCCCCN1C[C@H](O)[C@@H](O)[C@H](O)[C@H]1CO,inactive: -1.28,inactive: 0.97,inactive: -1.01
CCCCCN(CCCCC)C(=O)C(CCC(=O)O)NC(=O)c1ccc(Cl)c(Cl)c1 (centres undefined) [Lorglumide],inactive: -0.0245,–,inactive: 1.71
CCCCCN(CCCCC)C(=O)C(CCC(=O)O)NC(=O)c1ccc(Cl)c(Cl)c1 (centres undefined) [lorglumide],–,inactive: 3.02,–
CC(=O)[O-] [calcium acetate],inactive: 0.391,inactive: -0.24,inactive: 1.24
CC(=O)[O-] [Zinc acetate],–,inactive: -1.45,–
CCC(=O)OC1C(OC2C(C)C(OC3CC(C)(OC)C(O)C(C)O3)C(C)C(=O)OC(CC)C(C)(O)C(O)C(C)C(=O)C(C)CC2(C)O)OC(C)CC1N(C)C (centres undefined) [Erythromycin stinoprate],active: 6.17,inactive: 0.686,inactive: -0.0961
CC(=O)Oc1ccc(-c2ccc(F)cc2)cc1C(=O)O,inactive: -0.245,inactive: -0.0602,inactive: -1.02
COc1cc2c(Nc3ccc(Br)cc3F)ncnc2cc1OCC1CCN(C)CC1 [vandetanib],inactive: -0.844,inactive: -1.25,inactive: 0.0671
COc1cccc(C(=O)N2CCC3(CC2)Cc2ccccc2NC3=O)c1,inactive: -1.12,–,inactive: 3.13
O=c1cc(OCCCn2c3ccccc3c3ccccc32)ccn1Cc1ccccc1Cl,inactive: -0.262,inactive: 0.354,inactive: -0.573
Cc1nc2c(s1)C(=O)C=C(NCCN(C)C)C2=O,inactive: 0.405,inactive: -0.395,inactive: -0.749
Cc1cc(SCc2nn(-c3ccc(C(F)(F)F)cc3)nc2C)ccc1OCC(=O)O [not Seladelpar],inactive: -2.33,inactive: 1.37,inactive: -1
CCCCC/C=C\C/C=C\CCCCCCCC(=O)O,inactive: -0.436,inactive: -1.33,inactive: 0.352
CCCOC,inactive: 0.563,inactive: 1.84,inactive: -0.244
CC(C)(O)c1ccccc1-c1ccccc1Cl,inactive: -0.162,inactive: -0.223,inactive: -1.55
O=c1[nH]cnc2c1ncn2[C@H]1CC[C@@H](CO)O1,–,inactive: -2.13,–
O=c1[nH]cnc2c1ncn2[C@H]1CC[C@@H](CO)O1 [Didanosine],inactive: -0.248,inactive: 0.0415,inactive: -0.223
CCCN(CCC)C(=O)C(Cc1ccc(OCCCN2CCN(C)CC2)cc1)NC(=O)c1cccc(Cl)c1 (centres undefined),inactive: 0.101,inactive: -0.667,inactive: -0.284
